These results are taken from publication PMC10182610.

Protein sequences, listed by entry. Tags and fused reporters are not part of them. Lines headed by an entry give the natural chain unless they say otherwise; changes in a name come on top.
UniProt Q15386: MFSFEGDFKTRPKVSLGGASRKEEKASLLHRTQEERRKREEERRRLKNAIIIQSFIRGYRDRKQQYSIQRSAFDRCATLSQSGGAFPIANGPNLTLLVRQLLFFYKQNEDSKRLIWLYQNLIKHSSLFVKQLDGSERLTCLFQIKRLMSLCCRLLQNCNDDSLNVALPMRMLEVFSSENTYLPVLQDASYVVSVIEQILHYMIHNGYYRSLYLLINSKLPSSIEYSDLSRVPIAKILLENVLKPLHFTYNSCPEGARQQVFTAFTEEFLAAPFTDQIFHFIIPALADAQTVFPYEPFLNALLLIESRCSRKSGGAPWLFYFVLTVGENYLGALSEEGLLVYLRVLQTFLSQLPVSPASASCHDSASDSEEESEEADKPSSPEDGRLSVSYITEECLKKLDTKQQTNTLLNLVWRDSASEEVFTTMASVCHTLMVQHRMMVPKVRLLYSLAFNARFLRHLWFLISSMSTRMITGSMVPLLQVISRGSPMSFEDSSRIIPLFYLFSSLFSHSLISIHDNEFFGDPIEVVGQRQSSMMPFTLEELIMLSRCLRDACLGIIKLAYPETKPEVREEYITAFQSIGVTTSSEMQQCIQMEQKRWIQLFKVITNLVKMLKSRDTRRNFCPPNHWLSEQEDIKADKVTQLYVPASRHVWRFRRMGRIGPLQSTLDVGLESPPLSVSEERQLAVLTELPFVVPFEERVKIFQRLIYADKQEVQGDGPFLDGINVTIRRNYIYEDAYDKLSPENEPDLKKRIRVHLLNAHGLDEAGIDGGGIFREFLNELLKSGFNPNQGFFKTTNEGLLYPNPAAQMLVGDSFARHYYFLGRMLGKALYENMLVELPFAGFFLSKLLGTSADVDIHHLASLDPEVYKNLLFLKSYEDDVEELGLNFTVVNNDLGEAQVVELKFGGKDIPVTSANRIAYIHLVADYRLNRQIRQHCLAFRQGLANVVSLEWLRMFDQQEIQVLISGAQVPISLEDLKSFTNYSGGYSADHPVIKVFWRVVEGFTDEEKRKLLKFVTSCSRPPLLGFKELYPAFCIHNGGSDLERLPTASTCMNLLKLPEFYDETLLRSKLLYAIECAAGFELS

These are yes or no findings as the source states them, for the method shown. Binding seen in cells or lysates may run through a third protein. Some results given as binding are weak or reduced against the parent protein; the word gives no strength.

The assay concerns the target ubiquitin protein ligase E3C (UBE3C) (human (endogenous in breast cancer cell lines)) (UniProt Q15386). Description: co-IP; immunoprecipitation with anti-UBE3C from cell lysate, TP73 detected by Western blot; cells not named. Background: A western blot detects proteins with antibodies after separation by electrophoresis.

B1: tumor protein p73 (TP73) (protein, UniProt O15350 1-636)
chain: MAQSTATSPDGGTTFEHLWSSLEPDSTYFDLPQSSRGNNEVVGGTDSSMDVFHLEGMTTSVMAQFNLLSSTMDQMSSRAASASPYTPEHAASVPTHSPYAQPSSTFDTMSPAPVIPSNTDYPGPHHFEVTFQQSSTAKSATWTYSPLLKKLYCQIAKTCPIQIKVSTPPPPGTAIRAMPVYKKAEHVTDVVKRCPNHELGRDFNEGQSAPASHLIRVEGNNLSQYVDDPVTGRQSVVVPYEPPQVGTEFTTILYNFMCNSSCVGGMNRRPILIIITLEMRDGQVLGRRSFEGRICACPGRDRKADEDHYREQQALNESSAKNGAASKRAFKQSPPAVPALGAGVKKRRHGDEDTYYLQVRGRENFEILMKLKESLELMELVPQPLVDSYRQQQQLLQRPSHLQPPSYGPVLSPMNKVHGGMNKLPSVNQLVGQPPPHSSAATPNLGPVGPGMLNNHGHAVPANGEMSSSHSAQSMVSGSHCTPPPPYHADPSLVSFLTGLGCPNCIEYFTSQGLQSIYHLQNLTIEDLGALKIPEQYRMTIWRGLQDLKQGHDYSTAQQLLRSSNAATISIGGSGELQRQRVMEAVHFRVRHTITIPNRGGPGGGPDEWADFGFDLPDCKARKQPIKEEFTEAEIH
On to B1, for which the binding entry is listed as “binds”.
